Values quoted from earlier work as cited in US20230165875A1, “METHYLTHIONINIUM COMPOUNDS FOR USE IN THE TREATMENT OF COVID-19” (priority 2020, published 2023).
For at least one compound, name, drawing or mass did not settle the structure.

Conditions: AD patients; cited from earlier work

SMILES: CN(C)c1ccc2nc3ccc(=[N+](C)C)cc-3sc2c1 [MTC, methylthioninium chloride, reference compound]
- minimum effective dose (anti-dementia effects): 138 mg/day
